Paper PMC5860104
These are yes or no findings as the source states them, for the method shown. In cells and extracts the contact can be indirect. Binding can be weak; no strength is given. Where a sequence is shown, tags or fusion partners need not be part of it.

Target: T1, GST-PI4KIIαK152A (human) (UniProt Q9BTU6)
T1 sequence: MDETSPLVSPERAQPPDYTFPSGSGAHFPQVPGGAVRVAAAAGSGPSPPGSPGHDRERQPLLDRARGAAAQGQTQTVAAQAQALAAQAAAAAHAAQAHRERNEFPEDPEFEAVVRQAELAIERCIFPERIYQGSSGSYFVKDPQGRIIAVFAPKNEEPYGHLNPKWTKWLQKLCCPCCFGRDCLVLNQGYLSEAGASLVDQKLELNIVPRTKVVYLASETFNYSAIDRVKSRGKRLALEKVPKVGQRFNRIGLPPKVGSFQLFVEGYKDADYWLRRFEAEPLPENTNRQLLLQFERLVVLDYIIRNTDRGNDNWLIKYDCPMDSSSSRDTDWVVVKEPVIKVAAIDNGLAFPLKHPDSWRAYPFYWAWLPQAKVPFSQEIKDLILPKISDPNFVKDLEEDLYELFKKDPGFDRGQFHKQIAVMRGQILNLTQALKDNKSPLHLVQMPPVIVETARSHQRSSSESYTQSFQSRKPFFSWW
Experiment: pull-down; GST pull-down: lysate (RIPA buffer) of MCF-7 cells transfected with GFP-PKD for 24 h, pulled down with exogenous GST, GST-PI4KIIα WT or GST-PI4KIIαK152A expressed in E. coli; only the target purified

human GFP-tagged PKD (enzyme)
binding: binds weakly
